The other results are listed elsewhere or left out.
Columns and labels:
Test in all cases: log2 fold change, soluble protein after heating vs DMSO (PISA); higher = thermal stabilisation; K562 cells, 10 uM, 30 min; active = over 0.2 and 3.5 SD of the protein, either way, in both replicates (recomputed)
[1] = compound: CS(=O)(=O)c1ccc(-c2cnc(N)c(C(=O)Nc3ccccc3)n2)cc1
In short: (§1)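 Soluble protein was defined as the supernatant after 21,000xg for 90 min. It came from K562 cells at 2×10^6 cells/mL given 10 μM compound for 30 min, heated in aliquots for 3 min across 48°C-58°C, pooled, and extracted in PBS with 0.5% NP-40 at 4°C, and was quantified by TMTpro 16plex LC-MS/MS with equalised channel sums. Thermal stability against control samples, from duplicates, is reported as log2 fold change.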

Protein sequences, listed by entry. Tags and fused reporters are not part of them. Lines headed by an entry give the natural chain unless they say otherwise; changes in a name come on top.
UniProt Q8N806: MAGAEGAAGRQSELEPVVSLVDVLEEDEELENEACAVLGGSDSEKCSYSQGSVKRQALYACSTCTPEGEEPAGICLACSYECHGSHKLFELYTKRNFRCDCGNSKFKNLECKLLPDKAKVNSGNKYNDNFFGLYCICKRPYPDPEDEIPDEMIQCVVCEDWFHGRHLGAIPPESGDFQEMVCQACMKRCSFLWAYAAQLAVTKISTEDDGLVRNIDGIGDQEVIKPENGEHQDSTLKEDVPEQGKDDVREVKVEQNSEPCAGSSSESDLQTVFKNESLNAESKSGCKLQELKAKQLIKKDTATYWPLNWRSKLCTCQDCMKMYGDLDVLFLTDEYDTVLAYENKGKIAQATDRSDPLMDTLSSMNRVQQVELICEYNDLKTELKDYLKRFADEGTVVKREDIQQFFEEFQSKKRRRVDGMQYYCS
UniProt Q15853: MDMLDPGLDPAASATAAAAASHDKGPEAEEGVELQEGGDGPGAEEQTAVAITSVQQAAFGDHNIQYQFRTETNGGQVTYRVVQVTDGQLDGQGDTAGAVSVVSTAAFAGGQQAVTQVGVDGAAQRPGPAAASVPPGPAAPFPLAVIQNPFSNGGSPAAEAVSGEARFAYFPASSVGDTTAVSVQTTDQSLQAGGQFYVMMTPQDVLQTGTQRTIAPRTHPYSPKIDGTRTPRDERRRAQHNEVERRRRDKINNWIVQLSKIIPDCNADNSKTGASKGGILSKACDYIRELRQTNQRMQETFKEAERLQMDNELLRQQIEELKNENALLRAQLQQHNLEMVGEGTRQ
UniProt Q93009, whole entry, looked up: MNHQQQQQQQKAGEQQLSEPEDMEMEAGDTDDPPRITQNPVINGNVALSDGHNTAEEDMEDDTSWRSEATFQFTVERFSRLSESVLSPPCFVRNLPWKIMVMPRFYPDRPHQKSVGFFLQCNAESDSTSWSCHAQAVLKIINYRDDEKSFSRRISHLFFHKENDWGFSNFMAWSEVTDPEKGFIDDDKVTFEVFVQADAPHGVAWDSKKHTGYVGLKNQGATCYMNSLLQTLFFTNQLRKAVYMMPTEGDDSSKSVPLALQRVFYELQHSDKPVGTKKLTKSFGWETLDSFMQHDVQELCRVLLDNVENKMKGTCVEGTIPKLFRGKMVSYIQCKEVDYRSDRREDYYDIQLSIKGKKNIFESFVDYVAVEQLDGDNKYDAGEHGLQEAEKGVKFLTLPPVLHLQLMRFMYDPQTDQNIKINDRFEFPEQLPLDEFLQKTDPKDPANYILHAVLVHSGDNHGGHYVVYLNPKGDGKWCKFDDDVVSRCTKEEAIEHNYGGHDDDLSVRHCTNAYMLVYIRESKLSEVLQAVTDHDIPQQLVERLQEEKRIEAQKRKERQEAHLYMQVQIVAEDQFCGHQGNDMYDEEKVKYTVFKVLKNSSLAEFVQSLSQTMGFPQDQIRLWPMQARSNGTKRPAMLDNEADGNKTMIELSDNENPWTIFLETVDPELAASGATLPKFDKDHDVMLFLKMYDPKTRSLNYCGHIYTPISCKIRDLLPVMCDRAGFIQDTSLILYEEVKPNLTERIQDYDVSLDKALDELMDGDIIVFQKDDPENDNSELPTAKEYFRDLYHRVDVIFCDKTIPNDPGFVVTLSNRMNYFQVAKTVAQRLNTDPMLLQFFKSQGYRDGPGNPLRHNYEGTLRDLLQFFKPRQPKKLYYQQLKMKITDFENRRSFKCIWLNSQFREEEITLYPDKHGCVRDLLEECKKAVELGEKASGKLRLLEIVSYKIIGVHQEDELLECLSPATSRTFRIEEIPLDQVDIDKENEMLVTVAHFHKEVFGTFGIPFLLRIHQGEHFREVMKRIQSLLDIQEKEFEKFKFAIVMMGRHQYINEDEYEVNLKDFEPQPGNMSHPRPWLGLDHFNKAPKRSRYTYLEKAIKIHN
UniProt Q969X6: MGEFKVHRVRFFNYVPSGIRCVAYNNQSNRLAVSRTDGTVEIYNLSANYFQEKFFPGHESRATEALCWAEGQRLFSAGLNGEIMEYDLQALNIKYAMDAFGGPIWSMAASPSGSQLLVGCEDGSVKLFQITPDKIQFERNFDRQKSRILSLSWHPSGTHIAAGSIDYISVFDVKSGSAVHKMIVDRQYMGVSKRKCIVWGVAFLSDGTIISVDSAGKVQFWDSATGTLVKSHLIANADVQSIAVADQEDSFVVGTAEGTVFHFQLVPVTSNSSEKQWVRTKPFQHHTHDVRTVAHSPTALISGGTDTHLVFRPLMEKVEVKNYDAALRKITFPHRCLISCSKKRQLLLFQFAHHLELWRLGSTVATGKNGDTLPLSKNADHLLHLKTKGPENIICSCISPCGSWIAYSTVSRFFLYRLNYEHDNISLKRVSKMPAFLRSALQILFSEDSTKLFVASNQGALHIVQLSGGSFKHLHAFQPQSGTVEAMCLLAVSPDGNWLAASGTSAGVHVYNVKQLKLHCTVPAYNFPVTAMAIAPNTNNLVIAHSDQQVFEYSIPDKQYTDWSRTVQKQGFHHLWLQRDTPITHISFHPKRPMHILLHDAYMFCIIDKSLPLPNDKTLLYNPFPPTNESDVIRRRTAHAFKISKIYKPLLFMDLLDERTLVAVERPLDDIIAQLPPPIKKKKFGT
UniProt Q9Y5K5, whole entry, looked up: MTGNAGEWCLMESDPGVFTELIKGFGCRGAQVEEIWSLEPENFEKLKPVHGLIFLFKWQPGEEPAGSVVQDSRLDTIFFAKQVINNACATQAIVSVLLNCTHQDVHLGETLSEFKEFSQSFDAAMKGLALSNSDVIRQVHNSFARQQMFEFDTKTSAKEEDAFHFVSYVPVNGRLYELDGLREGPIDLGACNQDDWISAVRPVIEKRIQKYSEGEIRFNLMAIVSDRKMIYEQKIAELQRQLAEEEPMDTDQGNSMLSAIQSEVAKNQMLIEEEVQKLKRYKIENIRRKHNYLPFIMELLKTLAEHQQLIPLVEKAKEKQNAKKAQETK
UniProt Q9NYU2: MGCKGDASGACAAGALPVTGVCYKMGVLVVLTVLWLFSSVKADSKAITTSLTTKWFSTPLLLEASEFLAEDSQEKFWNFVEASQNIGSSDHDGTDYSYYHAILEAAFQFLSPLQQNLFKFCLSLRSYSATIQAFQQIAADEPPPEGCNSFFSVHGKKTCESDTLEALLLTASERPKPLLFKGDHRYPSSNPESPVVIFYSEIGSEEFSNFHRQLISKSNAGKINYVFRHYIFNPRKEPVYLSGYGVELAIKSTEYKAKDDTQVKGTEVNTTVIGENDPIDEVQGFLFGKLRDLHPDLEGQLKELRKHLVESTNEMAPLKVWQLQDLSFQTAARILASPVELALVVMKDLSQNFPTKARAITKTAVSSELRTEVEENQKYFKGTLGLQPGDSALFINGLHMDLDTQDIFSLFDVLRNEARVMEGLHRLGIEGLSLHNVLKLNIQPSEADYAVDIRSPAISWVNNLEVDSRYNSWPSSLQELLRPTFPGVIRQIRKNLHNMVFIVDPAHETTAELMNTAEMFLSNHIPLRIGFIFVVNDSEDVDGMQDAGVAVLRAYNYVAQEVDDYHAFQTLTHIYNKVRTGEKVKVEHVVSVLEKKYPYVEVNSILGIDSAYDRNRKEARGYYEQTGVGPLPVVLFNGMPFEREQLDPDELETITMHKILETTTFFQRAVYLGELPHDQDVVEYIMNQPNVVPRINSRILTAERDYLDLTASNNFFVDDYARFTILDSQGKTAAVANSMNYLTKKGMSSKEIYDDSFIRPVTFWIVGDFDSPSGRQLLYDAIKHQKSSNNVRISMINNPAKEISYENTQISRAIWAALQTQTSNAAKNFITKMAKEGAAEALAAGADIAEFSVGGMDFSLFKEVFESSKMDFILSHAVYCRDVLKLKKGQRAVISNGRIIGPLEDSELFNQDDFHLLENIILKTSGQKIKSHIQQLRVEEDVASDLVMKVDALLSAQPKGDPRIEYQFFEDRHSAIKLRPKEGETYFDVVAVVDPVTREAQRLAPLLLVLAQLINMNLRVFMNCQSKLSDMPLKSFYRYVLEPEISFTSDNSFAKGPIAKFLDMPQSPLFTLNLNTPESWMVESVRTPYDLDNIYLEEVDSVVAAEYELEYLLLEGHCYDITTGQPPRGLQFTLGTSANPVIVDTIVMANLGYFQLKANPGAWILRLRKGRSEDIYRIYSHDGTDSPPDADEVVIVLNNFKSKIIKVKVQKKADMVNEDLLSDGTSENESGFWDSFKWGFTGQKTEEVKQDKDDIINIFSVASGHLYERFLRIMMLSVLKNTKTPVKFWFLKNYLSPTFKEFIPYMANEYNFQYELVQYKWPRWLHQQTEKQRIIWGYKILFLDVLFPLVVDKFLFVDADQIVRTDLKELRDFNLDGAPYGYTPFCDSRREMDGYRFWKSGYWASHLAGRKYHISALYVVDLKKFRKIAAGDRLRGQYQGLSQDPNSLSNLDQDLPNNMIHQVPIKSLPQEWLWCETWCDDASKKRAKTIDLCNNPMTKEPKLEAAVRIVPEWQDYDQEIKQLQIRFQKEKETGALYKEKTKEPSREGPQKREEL
UniProt Q8WVY7: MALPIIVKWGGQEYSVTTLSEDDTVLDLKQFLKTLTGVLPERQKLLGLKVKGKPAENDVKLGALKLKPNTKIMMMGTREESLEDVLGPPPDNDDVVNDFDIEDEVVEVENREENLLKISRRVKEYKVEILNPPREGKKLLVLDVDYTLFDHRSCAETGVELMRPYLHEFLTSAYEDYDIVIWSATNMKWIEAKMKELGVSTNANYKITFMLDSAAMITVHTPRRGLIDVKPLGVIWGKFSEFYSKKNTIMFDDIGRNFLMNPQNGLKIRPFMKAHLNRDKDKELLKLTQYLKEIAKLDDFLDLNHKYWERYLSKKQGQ
UniProt Q86UV5: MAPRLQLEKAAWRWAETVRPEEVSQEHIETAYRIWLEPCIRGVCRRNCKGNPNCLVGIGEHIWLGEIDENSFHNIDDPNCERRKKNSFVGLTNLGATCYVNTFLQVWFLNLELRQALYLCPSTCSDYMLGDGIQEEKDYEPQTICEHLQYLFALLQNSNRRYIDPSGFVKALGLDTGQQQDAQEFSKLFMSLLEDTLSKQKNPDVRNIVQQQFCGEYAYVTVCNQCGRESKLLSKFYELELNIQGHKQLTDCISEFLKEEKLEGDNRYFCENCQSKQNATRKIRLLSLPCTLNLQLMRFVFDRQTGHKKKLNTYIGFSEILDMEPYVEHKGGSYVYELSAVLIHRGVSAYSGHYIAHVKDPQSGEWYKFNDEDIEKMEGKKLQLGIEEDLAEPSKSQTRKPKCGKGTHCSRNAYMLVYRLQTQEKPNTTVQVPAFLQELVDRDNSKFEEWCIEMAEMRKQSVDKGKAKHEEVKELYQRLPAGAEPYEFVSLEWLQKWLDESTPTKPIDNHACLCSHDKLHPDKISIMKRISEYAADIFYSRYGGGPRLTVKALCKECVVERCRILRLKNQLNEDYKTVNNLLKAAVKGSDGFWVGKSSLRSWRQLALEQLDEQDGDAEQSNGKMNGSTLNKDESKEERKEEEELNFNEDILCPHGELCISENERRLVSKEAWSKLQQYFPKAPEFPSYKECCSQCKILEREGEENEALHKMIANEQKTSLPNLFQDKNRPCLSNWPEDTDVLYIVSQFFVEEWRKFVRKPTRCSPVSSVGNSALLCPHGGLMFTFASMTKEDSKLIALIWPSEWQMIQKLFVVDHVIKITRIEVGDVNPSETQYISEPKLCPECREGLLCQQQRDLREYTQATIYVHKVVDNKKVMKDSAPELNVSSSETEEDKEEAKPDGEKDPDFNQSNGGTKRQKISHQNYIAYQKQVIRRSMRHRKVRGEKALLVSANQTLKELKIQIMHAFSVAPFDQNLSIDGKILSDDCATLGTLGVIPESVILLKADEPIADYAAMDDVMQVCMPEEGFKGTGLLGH
UniProt O94782: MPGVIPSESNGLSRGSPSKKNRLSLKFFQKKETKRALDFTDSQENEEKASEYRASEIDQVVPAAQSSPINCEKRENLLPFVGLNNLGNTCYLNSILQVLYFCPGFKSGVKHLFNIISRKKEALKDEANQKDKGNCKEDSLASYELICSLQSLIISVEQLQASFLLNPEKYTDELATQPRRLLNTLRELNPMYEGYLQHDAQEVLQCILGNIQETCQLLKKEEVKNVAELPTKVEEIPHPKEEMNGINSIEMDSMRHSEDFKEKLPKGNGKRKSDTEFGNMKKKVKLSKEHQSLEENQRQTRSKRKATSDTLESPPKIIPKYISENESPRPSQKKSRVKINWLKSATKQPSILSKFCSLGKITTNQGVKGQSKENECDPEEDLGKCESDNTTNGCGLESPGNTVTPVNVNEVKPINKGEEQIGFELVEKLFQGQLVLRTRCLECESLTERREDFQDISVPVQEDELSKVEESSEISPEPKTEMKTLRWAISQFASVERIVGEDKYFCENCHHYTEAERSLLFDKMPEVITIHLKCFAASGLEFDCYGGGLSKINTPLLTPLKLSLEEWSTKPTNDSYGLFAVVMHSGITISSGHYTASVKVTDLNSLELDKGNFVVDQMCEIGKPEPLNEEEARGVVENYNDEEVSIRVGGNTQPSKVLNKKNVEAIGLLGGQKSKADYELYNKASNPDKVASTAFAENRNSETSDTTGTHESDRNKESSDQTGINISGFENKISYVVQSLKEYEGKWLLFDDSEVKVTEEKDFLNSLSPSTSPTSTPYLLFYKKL

crizotinib = compound: C[C@@H](Oc1cc(-c2cnn(C3CCNCC3)c2)cnc1N)c1c(Cl)ccc(F)c1Cl [crizotinib]
In short: as §1

[2] = compound: C[C@@H]1COCCN1C2=NC(=NC(=C2)C3(CC3)S(=O)(=O)C)C4=C5C=CNC5=CC=C4
In short: as §1

[3] = compound: C[C@H](C1=CC=C(C=C1)C(=O)NC2=C3C=CNC3=NC=C2)N
In short: as §1

duvelisib = compound: C[C@H](Nc1ncnc2nc[nH]c12)c1cc2cccc(Cl)c2c(=O)n1-c1ccccc1 [duvelisib]
In short: as §1

gandotinib = compound: Cc1cc(Nc2cc(CN3CCOCC3)c3nc(C)c(Cc4ccc(Cl)cc4F)n3n2)n[nH]1 [gandotinib]
In short: as §1

tozasertib = compound: Cc1cc(Nc2cc(N3CCN(C)CC3)nc(Sc3ccc(NC(=O)C4CC4)cc3)n2)n[nH]1 [tozasertib]
In short: as §1

[4] = compound: Cc1cc(SCc2sc(-c3ccc(C(F)(F)F)cc3)nc2C)ccc1OCC(=O)O
In short: as §1

doramapimod = compound: Cc1ccc(-n2nc(C(C)(C)C)cc2NC(=O)Nc2ccc(OCCN3CCOCC3)c3ccccc23)cc1 [doramapimod]
In short: as §1

ispinesib = compound: Cc1ccc(C(=O)N(CCCN)[C@@H](c2nc3cc(Cl)ccc3c(=O)n2Cc2ccccc2)C(C)C)cc1 [ispinesib]
In short: as §1

| Target | log2 fold change [1] | log2 fold change (crizotinib) | log2 fold change [2] | log2 fold change [3] | log2 fold change (duvelisib) | log2 fold change (gandotinib) | log2 fold change (tozasertib) | log2 fold change [4] | log2 fold change (doramapimod) | log2 fold change (ispinesib) |
| --- | --- | --- | --- | --- | --- | --- | --- | --- | --- | --- |
| UTP15 (UniProt Q8TED0) | inactive: -0.079 | inactive: 0.065 | inactive: -0.49 | inactive: 0.416 | inactive: -0.15 | inactive: 0.236 | inactive: -0.024 | inactive: -0.028 | inactive: 0.201 | inactive: -0.148 |
| UCKL1 (UniProt Q9NWZ5) | inactive: 0.057 | inactive: 0.026 | inactive: 0.062 | inactive: 0.017 | inactive: 0.107 | inactive: 0.054 | inactive: 0 | inactive: 0.125 | inactive: 0.032 | inactive: 0.034 |
| UBR4 isoform 2 (UniProt Q5T4S7) | inactive: 0.024 | inactive: -0.066 | inactive: -0.059 | inactive: 0.134 | inactive: -0.047 | inactive: -0.024 | inactive: 0.055 | inactive: 0.13 | inactive: 0.061 | inactive: -0.085 |
| USP19 isoform 6 (UniProt O94966) | inactive: -0.005 | inactive: 0.045 | inactive: 0.016 | inactive: -0.033 | inactive: 0.012 | inactive: -0.124 | inactive: 0.019 | inactive: 0.042 | inactive: 0.012 | inactive: 0.034 |
| USP6NL isoform 2 (UniProt Q92738) | inactive: 0.043 | inactive: -0.065 | inactive: 0.216 | inactive: -0.361 | inactive: -0.178 | – | inactive: -0.057 | inactive: 0.059 | inactive: 0.238 | inactive: 0.184 |
| UROD (UniProt P06132) | inactive: 0.119 | inactive: -0.008 | inactive: 0.022 | inactive: -0.017 | inactive: 0 | inactive: 0.03 | inactive: -0.042 | inactive: -0.06 | inactive: 0.027 | inactive: -0.011 |
| UBR7 (UniProt Q8N806) | inactive: -0.017 | inactive: -0.014 | inactive: -0.015 | inactive: -0.098 | inactive: 0.037 | inactive: 0.006 | inactive: 0.026 | inactive: 0.046 | inactive: -0.04 | inactive: 0.131 |
| USP20 (UniProt Q9Y2K6) | inactive: -0.189 | inactive: -0.131 | inactive: -0.066 | inactive: 0.192 | inactive: -0.185 | – | – | inactive: -0.002 | inactive: -0.036 | inactive: -0.117 |
| UBL7 (UniProt Q96S82) | inactive: 0.004 | inactive: -0.008 | inactive: 0.24 | inactive: -0.087 | inactive: 0.098 | inactive: 0.11 | inactive: 0.001 | inactive: 0.114 | inactive: 0.036 | inactive: -0.069 |
| USF2 (UniProt Q15853) | inactive: -0.067 | inactive: -0.071 | inactive: 0.025 | inactive: 0.036 | inactive: 0.007 | inactive: -0.014 | inactive: 0.053 | inactive: -0.053 | inactive: 0.07 | inactive: -0.019 |
| USP7 (UniProt Q93009) | inactive: 0.008 | inactive: -0.311 | inactive: 0.147 | inactive: 0.07 | – | inactive: -0.157 | – | inactive: 0.146 | inactive: -0.039 | inactive: -0.175 |
| USP24 (UniProt Q9UPU5) | inactive: 0.062 | inactive: 0.204 | active: 0.396 | inactive: 0.015 | – | inactive: -0.213 | – | inactive: -0.017 | inactive: -0.041 | inactive: 0.115 |
| UGDH (UniProt O60701) | inactive: -0.106 | inactive: 0.079 | inactive: 0.041 | inactive: -0.161 | – | inactive: -0.064 | – | inactive: 0.049 | inactive: -0.106 | inactive: 0.165 |
| UTP4 (UniProt Q969X6) | inactive: -0.013 | inactive: 0.019 | inactive: 0.055 | inactive: 0.004 | – | inactive: 0.004 | – | inactive: -0.056 | inactive: 0.012 | inactive: 0.066 |
| UCHL5 (UniProt Q9Y5K5) | inactive: 0.023 | inactive: -0.066 | inactive: 0 | inactive: -0.005 | – | inactive: -0.116 | – | inactive: 0.064 | inactive: -0.015 | inactive: -0.056 |
| USP14 (UniProt P54578) | inactive: 0.006 | inactive: -0.023 | inactive: 0.082 | inactive: -0.037 | – | inactive: -0.078 | – | inactive: 0.076 | inactive: 0.002 | inactive: 0.017 |
| ULK3 isoform 4 (UniProt Q6PHR2) | inactive: -0.088 | inactive: -0.403 | inactive: 0.15 | – | – | inactive: -0.604 | – | – | inactive: -0.149 | inactive: -0.129 |
| UGGT1 (UniProt Q9NYU2) | inactive: 0.013 | inactive: 0 | inactive: 0.012 | inactive: 0.009 | – | inactive: 0.005 | – | inactive: 0.016 | inactive: 0.017 | inactive: 0.012 |
| UBLCP1 (UniProt Q8WVY7) | inactive: 0.063 | inactive: 0.068 | inactive: -0.007 | inactive: -0.034 | – | inactive: -0.06 | – | inactive: 0.062 | inactive: -0.061 | inactive: 0.126 |

Full records, quoted from the list. Values in the order: log2 fold change [1] | log2 fold change (crizotinib) | log2 fold change [2] | log2 fold change [3] | log2 fold change (duvelisib) | log2 fold change (gandotinib) | log2 fold change (tozasertib) | log2 fold change [4] | log2 fold change (doramapimod) | log2 fold change (ispinesib)
UTP4 (UniProt Q969X6) in the list: inactive: -0.013 | inactive: 0.019 | inactive: 0.055 | inactive: 0.004 | – | inactive: 0.004 | – | inactive: -0.056 | inactive: 0.012 | inactive: 0.066
USP7 (UniProt Q93009) in the list: inactive: 0.008 | inactive: -0.311 | inactive: 0.147 | inactive: 0.07 | – | inactive: -0.157 | – | inactive: 0.146 | inactive: -0.039 | inactive: -0.175

The list continues.

| Target | log2 fold change [1] | log2 fold change (crizotinib) | log2 fold change [2] | log2 fold change [3] | log2 fold change (duvelisib) | log2 fold change (gandotinib) | log2 fold change (tozasertib) | log2 fold change [4] | log2 fold change (doramapimod) | log2 fold change (ispinesib) |
| --- | --- | --- | --- | --- | --- | --- | --- | --- | --- | --- |
| UHRF1BP1L (UniProt A0JNW5) | inactive: 0.001 | inactive: -0.04 | inactive: 0.031 | inactive: -0.002 | – | inactive: -0.038 | – | inactive: -0.024 | inactive: 0.046 | inactive: 0.2 |
| USP3 (UniProt Q9Y6I4) | inactive: 0.065 | inactive: -0.131 | inactive: 0.043 | inactive: -0.26 | – | inactive: -0.246 | – | inactive: 0.155 | inactive: -0.023 | inactive: -0.04 |
| UTP14A (UniProt Q9BVJ6) | inactive: -0.059 | inactive: -0.035 | inactive: -0.382 | inactive: 0.274 | – | inactive: 0.151 | – | inactive: 0.065 | inactive: 0.172 | inactive: -0.171 |
| VAMP7 (UniProt P51809) | inactive: 0.021 | active: -0.299 | inactive: 0.005 | inactive: -0.046 | – | inactive: -0.026 | – | inactive: -0.011 | inactive: -0.007 | active: -0.275 |
| UTP14C (UniProt Q5TAP6) | inactive: 0.103 | inactive: -0.248 | inactive: 0.131 | – | – | – | – | – | inactive: -0.026 | – |
| UFD1 isoform 1 (UniProt Q92890) | inactive: -0.029 | inactive: 0.004 | inactive: -0.032 | inactive: -0.022 | – | inactive: -0.099 | – | inactive: -0.04 | inactive: 0.007 | inactive: 0.036 |
| UFM1 (UniProt P61960) | inactive: 0.021 | inactive: 0.004 | inactive: 0.178 | inactive: -0.062 | – | – | – | inactive: -0.043 | inactive: -0.037 | inactive: 0.158 |
| USP15 (UniProt Q9Y4E8) | inactive: 0.04 | inactive: -0.041 | inactive: 0.05 | inactive: -0.009 | – | inactive: -0.043 | – | inactive: 0.063 | inactive: -0.045 | inactive: -0.036 |
| UCHL5 isoform 3 (UniProt Q9Y5K5) | inactive: 0.039 | inactive: -0.458 | inactive: 0.058 | inactive: -0.05 | – | – | – | – | inactive: -0.067 | inactive: 0.02 |
| USP48 isoform 8 (UniProt Q86UV5) | inactive: 0.03 | inactive: -0.036 | inactive: 0.066 | inactive: -0.133 | – | inactive: -0.197 | – | inactive: 0.212 | inactive: -0.1 | inactive: -0.07 |
| USP1 (UniProt O94782) | inactive: 0.147 | inactive: -0.063 | inactive: -0.097 | inactive: -0.104 | – | – | inactive: 0.081 | – | inactive: -0.152 | inactive: -0.012 |
| UHRF1BP1 (UniProt Q6BDS2) | inactive: 0.003 | inactive: 0.086 | inactive: 0.001 | inactive: -0.009 | – | inactive: -0.004 | – | inactive: -0.014 | inactive: 0.014 | inactive: 0.12 |
| UBXN10 (UniProt Q96LJ8) | inactive: -0.03 | inactive: -0.121 | inactive: -0.091 | inactive: -0.09 | – | inactive: 0.161 | – | inactive: -0.008 | inactive: -0.014 | inactive: -0.124 |
| VARS2, A0A0G2JL52 | inactive: 0.004 | inactive: 0 | inactive: 0.06 | inactive: 0.018 | – | inactive: -0.061 | – | inactive: 0.025 | inactive: 0.048 | active: -0.244 |
| UPF3A (UniProt Q9H1J1) | inactive: -0.156 | inactive: 0.059 | inactive: -0.283 | – | – | – | – | – | inactive: 0.133 | – |
| UBR2 (UniProt Q8IWV8) | inactive: 0 | inactive: -0.027 | inactive: -0.063 | inactive: 0.166 | – | inactive: 0 | – | inactive: 0.135 | inactive: 0.073 | inactive: -0.141 |
| UFL1 (UniProt O94874) | inactive: 0.05 | inactive: -0.053 | inactive: -0.043 | inactive: 0.067 | – | inactive: -0.069 | – | inactive: 0.106 | inactive: -0.02 | inactive: -0.025 |
| UPF3B (UniProt Q9BZI7) | inactive: 0 | inactive: 0.091 | inactive: -0.63 | inactive: 0.542 | – | inactive: 0.452 | – | inactive: 0.064 | inactive: 0.295 | inactive: -0.222 |

— the supplement of paper PMC10849652
